Measurements reported in PubChem BioAssay AID1224829 (NIAID, 2016)
Purpose: 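Genes needed for LPS-driven NF-kappaB p65 nuclear entry in mouse macrophages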 (follow-up of hits). Cell system: mouse RAW264.7 G9 macrophage reporter cells. Reagent: single siRNA against mouse genes, 100 nM. Time to read-out: 2 days of siRNA knock-down, then 40 min of LPS before fixing. Conditions: LPS (Salmonella minnesota R595) at 10 ng/ml. Read-out: 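Imaging of GFP-p65 after 40 min of LPS; nuclear over perinuclear ring intensity ratio, scaled to plate median and non-targeting control wells, given as z-score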. Reading the numbers: p65 translocation z-score and gene median z-score, per vendor: higher = more nuclear NF-kappaB p65 after LPS. Active means: 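Active means the replicate-mean z-score lies beyond plus or minus 2, in either direction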. Calls: active = changed p65 translocation (either direction); inactive = no clear change.
The whole screen tested about 3,800 reagents; shown is a random part of them. 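Calls cover raised and lowered translocation; gene median uses one vendor's three siRNAs; qiagen siRNAs acted more weakly than ambion siRNAs.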 A number with no mark means an inactive call. Reagents against one gene are numbered here. No sequences are given here.

The first 5 entries as a preview:
| p65 translocation z-score, replicate mean | p65 translocation z-score, replicate 1 | p65 translocation z-score, replicate 2 | gene median z-score, per vendor | gene | siRNA no. | siRNA vendor or control pool |
| --- | --- | --- | --- | --- | --- | --- |
| -0.175 | 1.12 | -1.47 | -3.04 | Prickle3 | 1 | ambion single siRNA |
| -4.42 (active) | -4.38 | -4.47 | -3.04 | Prickle3 | 2 | ambion single siRNA |
| -3.04 (active) | -2.33 | -3.75 | -3.04 | Prickle3 | 3 | ambion single siRNA |
| -2.01 (active) | 0.0154 | -4.04 | 0.473 | Prickle3 | 4 | qiagen single siRNA |
| 1.8 | 0.93 | 2.68 | 0.473 | Prickle3 | 5 | qiagen single siRNA |

Results, from the first entry:
| p65 translocation z-score, replicate mean | p65 translocation z-score, replicate 1 | p65 translocation z-score, replicate 2 | gene median z-score, per vendor | gene | siRNA no. | siRNA vendor or control pool |
| --- | --- | --- | --- | --- | --- | --- |
| -0.175 | 1.12 | -1.47 | -3.04 | Prickle3 | 1 | ambion single siRNA |
| -4.42 (active) | -4.38 | -4.47 | -3.04 | Prickle3 | 2 | ambion single siRNA |
| -3.04 (active) | -2.33 | -3.75 | -3.04 | Prickle3 | 3 | ambion single siRNA |
| -2.01 (active) | 0.0154 | -4.04 | 0.473 | Prickle3 | 4 | qiagen single siRNA |
| 1.8 | 0.93 | 2.68 | 0.473 | Prickle3 | 5 | qiagen single siRNA |
| 1.31 | -0.407 | 3.02 | 0.473 | Prickle3 | 6 | qiagen single siRNA |
| 1.68 | 2.8 | 0.559 | -1.62 | Dffa | 1 | ambion single siRNA |
| -4.17 (active) | -3.41 | -4.93 | -1.62 | Dffa | 2 | ambion single siRNA |
| -1.62 | -1.8 | -1.43 | -1.62 | Dffa | 3 | ambion single siRNA |
| -2.42 (active) | -4.53 | -0.306 | -0.576 | Dffa | 4 | qiagen single siRNA |
| 1.23 | -0.33 | 2.79 | -0.576 | Dffa | 5 | qiagen single siRNA |
| -1.75 | -0.821 | -2.67 | -0.576 | Dffa | 6 | qiagen single siRNA |
| -1.26 | -1.9 | -0.627 | -3.66 | Slc5a6 | 1 | ambion single siRNA |
| -3.66 (active) | -4.69 | -2.64 | -3.66 | Slc5a6 | 2 | ambion single siRNA |
| -6.81 (active) | -7.01 | -6.6 | -3.66 | Slc5a6 | 3 | ambion single siRNA |
| 2.33 (active) | 2.33 | – | 1.68 | Slc5a6 | 4 | qiagen single siRNA |
| 1.65 | 1.76 | 1.54 | 1.68 | Slc5a6 | 5 | qiagen single siRNA |
| -0.54 | -2.76 | 1.68 | 1.68 | Slc5a6 | 6 | qiagen single siRNA |
| -1.66 | -2.04 | -1.27 | -1.83 | Ier5 | 1 | ambion single siRNA |
| -1.46 | -0.753 | -2.17 | -1.83 | Ier5 | 2 | ambion single siRNA |
| -2.35 (active) | -1.62 | -3.08 | -1.83 | Ier5 | 3 | ambion single siRNA |
| -2.23 (active) | -2.91 | -1.56 | -1.63 | Tnfrsf11b | 1 | ambion single siRNA |
| 0.702 | 0.377 | 1.03 | -1.63 | Tnfrsf11b | 2 | ambion single siRNA |
| -1.98 | -1.7 | -2.26 | -1.63 | Tnfrsf11b | 3 | ambion single siRNA |
| -1.95 | -1.37 | -2.53 | -1.69 | Tnfrsf11b | 4 | qiagen single siRNA |
| -0.93 | -0.173 | -1.69 | -1.69 | Tnfrsf11b | 5 | qiagen single siRNA |
| -5.47 (active) | -5.47 | – | -1.69 | Tnfrsf11b | 6 | qiagen single siRNA |
| -2.74 (active) | -1.48 | -4 | -2.86 | Actl7a | 1 | ambion single siRNA |
| -1.18 | -0.635 | -1.72 | -2.86 | Actl7a | 2 | ambion single siRNA |
| -5.11 (active) | -6.19 | -4.02 | -2.86 | Actl7a | 3 | ambion single siRNA |
| 1.2 | 0.577 | 1.82 | 0.894 | Actl7a | 4 | qiagen single siRNA |
| -2.95 (active) | -2.95 | – | 0.894 | Actl7a | 5 | qiagen single siRNA |
| 1.75 | 0.894 | 2.62 | 0.894 | Actl7a | 6 | qiagen single siRNA |
| -2.09 (active) | -2 | -2.18 | -2.09 | Zeb2 | 1 | ambion single siRNA |
| -1.27 | -0.59 | -1.96 | -2.09 | Zeb2 | 2 | ambion single siRNA |
| -2.92 (active) | -2.41 | -3.43 | -2.09 | Zeb2 | 3 | ambion single siRNA |
| -1.5 | -1.49 | -1.5 | -2.18 | Zeb2 | 4 | qiagen single siRNA |
| -2.18 (active) | -1.18 | -3.17 | -2.18 | Zeb2 | 5 | qiagen single siRNA |
| -3.77 (active) | -2.86 | -4.68 | -2.18 | Zeb2 | 6 | qiagen single siRNA |
| -2.2 (active) | -2.42 | -1.98 | -2.71 | Or5ar1 | 1 | ambion single siRNA |
| – | – | – | -2.71 | Or5ar1 | 2 | ambion single siRNA |
| -3.03 (active) | -3.06 | -2.99 | -2.71 | Or5ar1 | 3 | ambion single siRNA |
| -0.183 | -0.213 | -0.154 | -1.13 | Or5ar1 | 4 | qiagen single siRNA |
| -4.68 (active) | -3.99 | -5.36 | -1.13 | Or5ar1 | 5 | qiagen single siRNA |
| -0.715 | -2.04 | 0.613 | -1.13 | Or5ar1 | 6 | qiagen single siRNA |
| -0.693 | -0.747 | -0.64 | -0.879 | Hfe | 1 | ambion single siRNA |
| -0.455 | 0.102 | -1.01 | -0.879 | Hfe | 2 | ambion single siRNA |
| -4.39 (active) | -4.1 | -4.67 | -0.879 | Hfe | 3 | ambion single siRNA |
| 1.17 | 1.25 | 1.09 | 0.948 | Hfe | 4 | qiagen single siRNA |
| -0.892 | 0.0199 | -1.8 | 0.948 | Hfe | 5 | qiagen single siRNA |
| 2.16 (active) | 0.802 | 3.51 | 0.948 | Hfe | 6 | qiagen single siRNA |
